{
  "sequences": {"note": "By UniProt entry, the sequences of proteins in these tests, tags left out.", "UniProt Q9NRC8": "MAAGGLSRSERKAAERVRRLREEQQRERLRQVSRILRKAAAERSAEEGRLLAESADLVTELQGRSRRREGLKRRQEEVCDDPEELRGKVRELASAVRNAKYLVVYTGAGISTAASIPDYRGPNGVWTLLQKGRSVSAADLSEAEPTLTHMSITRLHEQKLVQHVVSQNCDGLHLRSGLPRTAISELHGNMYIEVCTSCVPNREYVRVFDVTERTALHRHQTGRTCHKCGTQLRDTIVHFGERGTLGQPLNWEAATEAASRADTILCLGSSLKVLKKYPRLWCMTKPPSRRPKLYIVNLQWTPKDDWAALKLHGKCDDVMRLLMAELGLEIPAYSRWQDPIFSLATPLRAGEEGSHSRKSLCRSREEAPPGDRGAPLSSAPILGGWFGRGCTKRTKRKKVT"},
  "source": "paper PMC9499238",
  "about": "“SIRT5 is a proviral factor that interacts with SARS-CoV-2 Nsp14 protein” (PLoS Pathogens, 2022)",
  "molecules": {"B1": {"name": "human SIRT2, endogenous (enzyme, UniProt Q8IXJ6 1-389)", "chain": "MAEPDPSHPLETQAGKVQEAQDSDSDSEGGAAGGEADMDFLRNLFSQTLSLGSQKERLLDELTLEGVARYMQSERCRRVICLVGAGISTSAGIPDFRSPSTGLYDNLEKYHLPYPEAIFEISYFKKHPEPFFALAKELYPGQFKPTICHYFMRLLKDKGLLLRCYTQNIDTLERIAGLEQEDLVEAHGTFYTSHCVSASCRHEYPLSWMKEKIFSEVTPKCEDCQSLVKPDIVFFGESLPARFFSCMQSDFLKVDLLLVMGTSLQVQPFASLISKAPLSTPRLLINKEKAGQSDPFLGMIMGLGGGMDFDSKKAYRDVAWLGECDQGCLALAELLGWKKELEDLVRREHASIDAQSGAGVPNPSTSASPKKSPPPAKDEARTTEREKPQ"}},
  "note": "No constants are given. Whether binding was seen depends on the method and setting. Binding seen in cells or lysates may run through a third protein.",
  "data": [
    {"target": "SARS-CoV-2 Nsp14 with a C-terminal 2xStrep affinity tag (SARS-CoV-2) (UniProt P0DTD1)", "assay": "pull-down", "values": [
      {"molecule": "human SIRT7, endogenous (from UniProt Q9NRC8 1-400) (enzyme)", "binding": "no binding"},
      {"molecule": "human SIRT6, endogenous (from UniProt Q8N6T7 1-355) (enzyme)", "binding": "no binding"},
      {"molecule": "B1", "binding": "no binding"}
    ]}
  ]
}
